Results are given in words; binding and its absence hold for the method and conditions named. Binding seen in cells or lysates may run through a third protein. Some binding calls cover weakened binding; strength is not graded here.
Molecular target: Eukaryotic translation initiation factor 1A, X-linked (human (endogenous in HEC-1A)) (UniProt P47813)
Assay: co-IP; HEC-1A whole-cell lysates in RIPA lysis buffer with protease inhibitors; protein A or G magnetic beads prebound with anti-EIF1AX, anti-FLAG, anti-IPO13, anti-XPO1 or normal IgG control; western blotting

Chains of the proteins cited; added tags and fusions are not shown.
UniProt P47813: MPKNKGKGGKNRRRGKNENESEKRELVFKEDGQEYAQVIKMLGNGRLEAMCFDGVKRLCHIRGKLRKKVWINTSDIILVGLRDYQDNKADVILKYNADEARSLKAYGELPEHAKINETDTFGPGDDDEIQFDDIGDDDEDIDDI
UniProt O14980: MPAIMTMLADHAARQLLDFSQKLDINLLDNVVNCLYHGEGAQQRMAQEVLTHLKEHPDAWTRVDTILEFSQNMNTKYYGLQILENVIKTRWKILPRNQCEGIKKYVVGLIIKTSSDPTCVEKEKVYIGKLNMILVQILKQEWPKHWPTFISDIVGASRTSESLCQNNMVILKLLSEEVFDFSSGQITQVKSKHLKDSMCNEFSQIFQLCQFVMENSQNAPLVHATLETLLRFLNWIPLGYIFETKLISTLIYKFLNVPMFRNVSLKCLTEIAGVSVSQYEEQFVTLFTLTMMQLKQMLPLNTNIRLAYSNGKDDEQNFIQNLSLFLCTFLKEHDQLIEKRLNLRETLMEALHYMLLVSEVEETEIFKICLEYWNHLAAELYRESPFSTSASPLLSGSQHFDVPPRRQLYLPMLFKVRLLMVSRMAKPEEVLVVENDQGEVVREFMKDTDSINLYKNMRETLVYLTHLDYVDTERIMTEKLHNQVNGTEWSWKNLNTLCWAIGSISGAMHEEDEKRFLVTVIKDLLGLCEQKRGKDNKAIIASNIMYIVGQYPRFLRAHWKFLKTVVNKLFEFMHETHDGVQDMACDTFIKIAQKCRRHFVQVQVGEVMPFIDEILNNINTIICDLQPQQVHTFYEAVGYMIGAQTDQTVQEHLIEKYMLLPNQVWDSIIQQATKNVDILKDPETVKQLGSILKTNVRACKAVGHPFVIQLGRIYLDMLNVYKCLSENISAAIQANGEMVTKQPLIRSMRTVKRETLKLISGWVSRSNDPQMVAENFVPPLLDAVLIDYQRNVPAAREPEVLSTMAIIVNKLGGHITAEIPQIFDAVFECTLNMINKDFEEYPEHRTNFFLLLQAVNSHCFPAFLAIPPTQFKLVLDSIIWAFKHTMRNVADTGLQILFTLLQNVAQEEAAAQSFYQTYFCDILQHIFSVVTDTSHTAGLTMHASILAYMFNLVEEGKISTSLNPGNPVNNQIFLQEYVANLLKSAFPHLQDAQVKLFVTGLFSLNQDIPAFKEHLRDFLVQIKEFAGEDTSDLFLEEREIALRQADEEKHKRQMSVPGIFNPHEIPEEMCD

- binding: binds
Substance: Exportin 1 (from UniProt O14980 1-1071)
